{"sequences": {"note": "By UniProt entry, the sequences of proteins in these tests, tags left out.", "UniProt Q91ZW3": "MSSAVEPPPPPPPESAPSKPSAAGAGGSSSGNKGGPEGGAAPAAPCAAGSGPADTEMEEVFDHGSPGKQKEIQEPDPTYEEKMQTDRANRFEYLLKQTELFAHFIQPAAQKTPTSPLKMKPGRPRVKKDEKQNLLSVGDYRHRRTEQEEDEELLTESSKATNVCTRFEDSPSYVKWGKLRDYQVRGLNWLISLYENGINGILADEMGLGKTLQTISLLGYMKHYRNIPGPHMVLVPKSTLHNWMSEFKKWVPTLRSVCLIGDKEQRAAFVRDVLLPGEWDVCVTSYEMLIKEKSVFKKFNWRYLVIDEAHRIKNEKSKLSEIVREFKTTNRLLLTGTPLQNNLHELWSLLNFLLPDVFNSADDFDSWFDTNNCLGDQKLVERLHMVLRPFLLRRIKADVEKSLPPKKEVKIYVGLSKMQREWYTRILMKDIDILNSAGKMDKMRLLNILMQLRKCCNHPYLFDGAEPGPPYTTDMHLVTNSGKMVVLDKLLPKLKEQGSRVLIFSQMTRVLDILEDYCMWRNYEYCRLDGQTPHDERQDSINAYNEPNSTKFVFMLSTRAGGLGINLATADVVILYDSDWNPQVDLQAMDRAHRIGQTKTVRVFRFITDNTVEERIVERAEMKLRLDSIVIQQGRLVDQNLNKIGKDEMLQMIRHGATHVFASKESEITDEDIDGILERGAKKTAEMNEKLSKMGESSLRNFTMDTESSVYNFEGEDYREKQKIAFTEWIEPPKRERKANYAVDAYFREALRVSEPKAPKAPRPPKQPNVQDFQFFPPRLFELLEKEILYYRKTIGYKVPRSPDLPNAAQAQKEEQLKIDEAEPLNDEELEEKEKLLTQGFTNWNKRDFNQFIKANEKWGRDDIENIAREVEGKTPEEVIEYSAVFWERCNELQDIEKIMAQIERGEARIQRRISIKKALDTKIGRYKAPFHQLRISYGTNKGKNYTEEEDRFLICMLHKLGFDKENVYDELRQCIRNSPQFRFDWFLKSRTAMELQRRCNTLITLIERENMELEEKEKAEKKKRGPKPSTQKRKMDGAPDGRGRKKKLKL", "UniProt E9Q2Z1": "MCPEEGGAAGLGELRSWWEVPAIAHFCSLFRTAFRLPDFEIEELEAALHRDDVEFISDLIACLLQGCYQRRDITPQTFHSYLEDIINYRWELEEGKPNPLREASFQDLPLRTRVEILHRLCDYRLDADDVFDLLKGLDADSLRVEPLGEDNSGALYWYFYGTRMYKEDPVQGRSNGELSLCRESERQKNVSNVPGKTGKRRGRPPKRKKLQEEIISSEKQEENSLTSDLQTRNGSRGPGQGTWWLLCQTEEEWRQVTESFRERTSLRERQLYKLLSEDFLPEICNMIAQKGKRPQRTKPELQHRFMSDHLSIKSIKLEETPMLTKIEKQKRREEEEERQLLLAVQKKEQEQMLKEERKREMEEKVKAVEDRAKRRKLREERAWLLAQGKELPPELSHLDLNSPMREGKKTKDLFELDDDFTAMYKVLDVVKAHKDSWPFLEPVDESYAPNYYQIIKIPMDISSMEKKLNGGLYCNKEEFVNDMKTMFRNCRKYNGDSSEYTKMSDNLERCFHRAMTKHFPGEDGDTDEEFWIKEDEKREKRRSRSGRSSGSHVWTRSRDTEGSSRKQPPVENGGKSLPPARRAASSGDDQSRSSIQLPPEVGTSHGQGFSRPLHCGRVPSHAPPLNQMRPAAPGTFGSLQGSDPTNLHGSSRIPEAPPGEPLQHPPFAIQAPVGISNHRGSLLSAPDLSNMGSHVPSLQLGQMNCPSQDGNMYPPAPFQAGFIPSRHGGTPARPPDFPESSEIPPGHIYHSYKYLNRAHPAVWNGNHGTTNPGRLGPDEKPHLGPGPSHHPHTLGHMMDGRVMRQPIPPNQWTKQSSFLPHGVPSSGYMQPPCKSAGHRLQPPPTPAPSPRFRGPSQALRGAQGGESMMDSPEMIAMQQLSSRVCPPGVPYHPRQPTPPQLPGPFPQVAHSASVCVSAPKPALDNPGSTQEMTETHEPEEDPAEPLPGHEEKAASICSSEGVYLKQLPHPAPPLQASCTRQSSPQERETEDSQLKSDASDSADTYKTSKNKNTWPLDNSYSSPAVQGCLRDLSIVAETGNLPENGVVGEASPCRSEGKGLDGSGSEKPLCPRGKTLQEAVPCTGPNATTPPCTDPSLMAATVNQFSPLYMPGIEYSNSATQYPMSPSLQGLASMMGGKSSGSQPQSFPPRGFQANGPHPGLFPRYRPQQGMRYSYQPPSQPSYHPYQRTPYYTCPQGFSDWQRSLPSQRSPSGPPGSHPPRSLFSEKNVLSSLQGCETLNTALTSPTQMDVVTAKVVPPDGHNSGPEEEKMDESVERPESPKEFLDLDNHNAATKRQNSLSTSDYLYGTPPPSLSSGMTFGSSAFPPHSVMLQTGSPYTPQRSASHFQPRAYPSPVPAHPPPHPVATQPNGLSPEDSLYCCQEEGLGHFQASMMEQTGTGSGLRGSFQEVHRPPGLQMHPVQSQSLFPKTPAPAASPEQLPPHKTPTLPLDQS"}, "source": "paper doi:10.1101/2023.07.25.550466", "molecular_target": "SNF2H (Smarca5) (mouse (endogenous in mESCs)) (UniProt Q91ZW3)", "assay": "affinity purification with mass spectrometry", "note": "Results are given in words; binding and its absence hold for the method and conditions named. Binding seen in cells or lysates may run through a third protein. A yes stands for co-enrichment or nearness to the bait. Other partners may have been found.", "data": [{"substance": "CECR2 (from UniProt E9Q2Z1 1-1453)", "values": [{"measurement": "binding", "result": "binds"}]}]}
